Laboratory results: paper PMC13245411
No constants are given. Whether binding was seen depends on the method and setting. Binding seen in cells or lysates may run through a third protein. Some entries that bind do so weakly or less than the wild type. For part of these data: Where a sequence is shown, tags or fusion partners need not be part of it. Values belong to the binder of their own block, whether it stands above or below them.

Protein sequences, listed by entry. Tags and fused reporters are not part of them. Lines headed by an entry give the natural chain unless they say otherwise; changes in a name come on top. Chains listed by the source or under a name are the forms on record and can include a tag or linker. Residues count along the entry.
UniProt Q5VXU9: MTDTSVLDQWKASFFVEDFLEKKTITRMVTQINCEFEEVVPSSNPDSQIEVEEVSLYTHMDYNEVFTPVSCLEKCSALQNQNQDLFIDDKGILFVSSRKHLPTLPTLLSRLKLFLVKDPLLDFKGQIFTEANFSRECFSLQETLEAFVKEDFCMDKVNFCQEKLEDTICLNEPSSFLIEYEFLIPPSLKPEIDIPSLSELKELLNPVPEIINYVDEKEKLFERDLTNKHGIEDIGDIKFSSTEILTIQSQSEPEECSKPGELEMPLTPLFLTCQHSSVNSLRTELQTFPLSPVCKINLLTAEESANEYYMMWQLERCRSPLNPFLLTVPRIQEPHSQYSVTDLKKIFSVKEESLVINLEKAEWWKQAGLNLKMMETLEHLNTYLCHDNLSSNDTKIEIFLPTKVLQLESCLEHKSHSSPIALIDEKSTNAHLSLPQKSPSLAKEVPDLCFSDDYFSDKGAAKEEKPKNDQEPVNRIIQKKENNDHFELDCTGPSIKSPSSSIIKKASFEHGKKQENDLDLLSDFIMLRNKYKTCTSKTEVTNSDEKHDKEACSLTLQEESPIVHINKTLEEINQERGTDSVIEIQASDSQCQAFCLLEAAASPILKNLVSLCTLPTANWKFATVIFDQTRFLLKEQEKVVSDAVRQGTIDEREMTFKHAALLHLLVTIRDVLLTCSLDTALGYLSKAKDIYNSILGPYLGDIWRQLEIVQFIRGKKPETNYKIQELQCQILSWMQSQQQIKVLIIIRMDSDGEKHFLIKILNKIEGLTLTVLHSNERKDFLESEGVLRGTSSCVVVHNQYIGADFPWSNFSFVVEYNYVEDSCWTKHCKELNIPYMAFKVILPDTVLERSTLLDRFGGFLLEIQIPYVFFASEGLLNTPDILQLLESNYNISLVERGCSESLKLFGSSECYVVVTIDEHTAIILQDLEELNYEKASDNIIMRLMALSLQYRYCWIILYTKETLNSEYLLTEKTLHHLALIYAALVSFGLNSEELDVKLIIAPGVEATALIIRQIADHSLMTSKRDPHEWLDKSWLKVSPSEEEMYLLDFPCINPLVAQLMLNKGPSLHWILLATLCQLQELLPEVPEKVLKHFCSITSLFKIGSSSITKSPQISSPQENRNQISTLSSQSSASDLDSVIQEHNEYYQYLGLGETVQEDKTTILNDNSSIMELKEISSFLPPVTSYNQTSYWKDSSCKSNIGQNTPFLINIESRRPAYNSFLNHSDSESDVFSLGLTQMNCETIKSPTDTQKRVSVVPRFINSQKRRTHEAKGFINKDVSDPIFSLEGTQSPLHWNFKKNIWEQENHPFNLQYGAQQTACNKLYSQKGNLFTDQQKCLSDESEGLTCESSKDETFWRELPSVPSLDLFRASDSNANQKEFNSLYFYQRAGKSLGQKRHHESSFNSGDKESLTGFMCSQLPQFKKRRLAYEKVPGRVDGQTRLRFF
human SHOC1 ΔF1 (aa1-288del): residues 289-1444 of Q5VXU9
human SHOC1 C-terminal 577–1444: residues 577-1444 of Q5VXU9
human SHOC1 ΔF2 (aa289-576del) (Q5VXU9, form named): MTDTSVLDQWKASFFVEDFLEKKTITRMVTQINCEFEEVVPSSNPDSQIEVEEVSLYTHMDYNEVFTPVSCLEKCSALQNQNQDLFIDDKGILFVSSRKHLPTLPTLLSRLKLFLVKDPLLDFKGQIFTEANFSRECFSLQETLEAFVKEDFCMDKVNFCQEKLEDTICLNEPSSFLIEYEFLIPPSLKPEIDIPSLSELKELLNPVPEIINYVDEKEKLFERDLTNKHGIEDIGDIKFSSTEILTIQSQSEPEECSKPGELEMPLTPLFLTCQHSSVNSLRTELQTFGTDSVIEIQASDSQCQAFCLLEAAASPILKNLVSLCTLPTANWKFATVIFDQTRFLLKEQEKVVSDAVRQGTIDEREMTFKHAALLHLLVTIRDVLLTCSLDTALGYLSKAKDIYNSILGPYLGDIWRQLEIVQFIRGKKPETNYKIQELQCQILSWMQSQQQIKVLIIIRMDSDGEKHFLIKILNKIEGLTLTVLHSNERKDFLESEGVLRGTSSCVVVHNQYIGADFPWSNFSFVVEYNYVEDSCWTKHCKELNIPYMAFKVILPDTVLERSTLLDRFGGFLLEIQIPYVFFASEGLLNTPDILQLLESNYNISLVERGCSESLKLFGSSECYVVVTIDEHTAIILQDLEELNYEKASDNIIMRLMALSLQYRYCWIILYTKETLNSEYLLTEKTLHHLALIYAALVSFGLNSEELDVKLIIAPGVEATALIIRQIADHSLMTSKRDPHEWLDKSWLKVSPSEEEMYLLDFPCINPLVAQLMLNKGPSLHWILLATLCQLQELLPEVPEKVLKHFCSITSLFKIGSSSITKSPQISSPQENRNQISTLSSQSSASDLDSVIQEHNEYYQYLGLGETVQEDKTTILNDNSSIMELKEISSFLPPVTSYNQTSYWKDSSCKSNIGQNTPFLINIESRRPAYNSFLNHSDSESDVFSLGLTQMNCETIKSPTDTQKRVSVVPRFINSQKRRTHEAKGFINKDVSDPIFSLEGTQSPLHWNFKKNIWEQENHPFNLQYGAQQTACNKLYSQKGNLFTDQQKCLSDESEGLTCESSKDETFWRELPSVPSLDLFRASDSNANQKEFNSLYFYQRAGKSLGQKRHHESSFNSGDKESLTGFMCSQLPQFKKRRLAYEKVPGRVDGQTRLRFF

What was measured:
[1] = target: T1, mouse HA-tagged TEX11 (mouse) (UniProt Q14AT2); assay: co-IP; TEX11 with SPO16 or C1orf146, with or without SHOC1 co-expressed (Supplementary Fig. S1A, B)
T1 sequence: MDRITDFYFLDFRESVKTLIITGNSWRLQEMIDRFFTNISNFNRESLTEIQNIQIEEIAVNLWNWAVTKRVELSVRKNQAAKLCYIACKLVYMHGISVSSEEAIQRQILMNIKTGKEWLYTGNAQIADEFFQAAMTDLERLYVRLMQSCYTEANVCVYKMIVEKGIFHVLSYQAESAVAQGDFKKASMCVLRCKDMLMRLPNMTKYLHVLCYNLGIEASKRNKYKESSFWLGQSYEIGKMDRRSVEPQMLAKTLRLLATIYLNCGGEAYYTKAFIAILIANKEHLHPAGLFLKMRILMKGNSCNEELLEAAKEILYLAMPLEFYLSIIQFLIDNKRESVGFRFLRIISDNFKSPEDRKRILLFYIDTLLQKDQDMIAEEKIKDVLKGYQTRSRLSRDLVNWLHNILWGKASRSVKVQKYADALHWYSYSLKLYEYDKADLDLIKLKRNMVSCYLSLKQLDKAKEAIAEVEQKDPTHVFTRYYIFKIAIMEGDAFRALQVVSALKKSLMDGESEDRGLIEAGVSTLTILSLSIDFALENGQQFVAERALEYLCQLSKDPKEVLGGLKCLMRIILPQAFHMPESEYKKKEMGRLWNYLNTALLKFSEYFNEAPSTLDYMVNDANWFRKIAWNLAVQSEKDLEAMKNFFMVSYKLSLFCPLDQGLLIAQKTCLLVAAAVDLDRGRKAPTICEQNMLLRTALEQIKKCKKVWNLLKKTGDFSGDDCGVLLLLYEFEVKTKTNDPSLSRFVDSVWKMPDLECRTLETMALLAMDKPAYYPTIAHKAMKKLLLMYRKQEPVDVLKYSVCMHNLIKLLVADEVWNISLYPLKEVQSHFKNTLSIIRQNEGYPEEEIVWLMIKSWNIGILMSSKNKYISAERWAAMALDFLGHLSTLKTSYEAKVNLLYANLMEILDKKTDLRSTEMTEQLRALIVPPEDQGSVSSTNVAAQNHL

[2] = target: human SHOC1 ΔF1 (aa1-288del) (human) (UniProt Q5VXU9); assay: co-IP; tagged proteins co-expressed in pairs in HEK293T; immunoprecipitated from cell lysates by tag-specific antibodies, Western blot; IP lysis buffer 20 mM HEPES, 150 mM NaCl, 0.5% NP-40, 1 mM DTT, pH 7.3; 4°C (Fig. 1A, B; Supplementary Fig. S2C, D)
[3] = target: human SHOC1 ΔF2 (aa289-576del) (human) (UniProt Q5VXU9); assay: as above
[4] = target: human FLAG-tagged SHOC1 (human) (UniProt Q5VXU9); assay: as above
[5] = target: human SHOC1 C-terminal 577–1444 (human) (UniProt Q5VXU9); assay: as above
[6] = target: T2, human MYC-tagged TEX11 (human) (UniProt Q8IYF3); assay: co-IP; TEX11 with SPO16 or C1orf146, with or without SHOC1 co-expressed (Supplementary Fig. S1A, B)
T2 sequence: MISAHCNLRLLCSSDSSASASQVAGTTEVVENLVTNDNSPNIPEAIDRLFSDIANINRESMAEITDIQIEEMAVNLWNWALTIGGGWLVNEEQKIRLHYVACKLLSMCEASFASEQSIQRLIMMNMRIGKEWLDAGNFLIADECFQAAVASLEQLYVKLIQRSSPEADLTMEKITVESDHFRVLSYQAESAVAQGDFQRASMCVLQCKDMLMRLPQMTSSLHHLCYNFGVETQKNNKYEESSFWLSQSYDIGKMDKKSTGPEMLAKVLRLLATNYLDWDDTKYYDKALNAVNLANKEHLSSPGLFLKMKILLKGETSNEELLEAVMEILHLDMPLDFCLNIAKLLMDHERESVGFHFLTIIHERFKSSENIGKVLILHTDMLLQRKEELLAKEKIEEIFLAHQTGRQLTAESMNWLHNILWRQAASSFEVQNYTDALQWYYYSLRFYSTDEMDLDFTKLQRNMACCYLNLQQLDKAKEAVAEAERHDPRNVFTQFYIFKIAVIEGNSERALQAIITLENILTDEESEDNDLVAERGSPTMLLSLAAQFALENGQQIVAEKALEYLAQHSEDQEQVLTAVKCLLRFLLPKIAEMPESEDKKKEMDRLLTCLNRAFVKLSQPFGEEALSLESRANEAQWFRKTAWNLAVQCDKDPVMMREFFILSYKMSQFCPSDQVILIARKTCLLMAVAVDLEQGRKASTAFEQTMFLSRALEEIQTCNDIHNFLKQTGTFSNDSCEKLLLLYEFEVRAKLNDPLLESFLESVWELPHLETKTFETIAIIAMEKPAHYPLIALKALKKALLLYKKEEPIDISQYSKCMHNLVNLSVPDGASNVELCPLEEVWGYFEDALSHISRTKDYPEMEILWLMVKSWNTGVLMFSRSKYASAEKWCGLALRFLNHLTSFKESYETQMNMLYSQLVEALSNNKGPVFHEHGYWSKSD

[7] = target: T3, human TEX11-nVenus (human) (UniProt Q8IYF3); assay: split reporter; Bi-FC with Venus fragments VN210 and VC210 fused to the two proteins, transfected into HeLa cells, fluorescence imaging
T3 sequence: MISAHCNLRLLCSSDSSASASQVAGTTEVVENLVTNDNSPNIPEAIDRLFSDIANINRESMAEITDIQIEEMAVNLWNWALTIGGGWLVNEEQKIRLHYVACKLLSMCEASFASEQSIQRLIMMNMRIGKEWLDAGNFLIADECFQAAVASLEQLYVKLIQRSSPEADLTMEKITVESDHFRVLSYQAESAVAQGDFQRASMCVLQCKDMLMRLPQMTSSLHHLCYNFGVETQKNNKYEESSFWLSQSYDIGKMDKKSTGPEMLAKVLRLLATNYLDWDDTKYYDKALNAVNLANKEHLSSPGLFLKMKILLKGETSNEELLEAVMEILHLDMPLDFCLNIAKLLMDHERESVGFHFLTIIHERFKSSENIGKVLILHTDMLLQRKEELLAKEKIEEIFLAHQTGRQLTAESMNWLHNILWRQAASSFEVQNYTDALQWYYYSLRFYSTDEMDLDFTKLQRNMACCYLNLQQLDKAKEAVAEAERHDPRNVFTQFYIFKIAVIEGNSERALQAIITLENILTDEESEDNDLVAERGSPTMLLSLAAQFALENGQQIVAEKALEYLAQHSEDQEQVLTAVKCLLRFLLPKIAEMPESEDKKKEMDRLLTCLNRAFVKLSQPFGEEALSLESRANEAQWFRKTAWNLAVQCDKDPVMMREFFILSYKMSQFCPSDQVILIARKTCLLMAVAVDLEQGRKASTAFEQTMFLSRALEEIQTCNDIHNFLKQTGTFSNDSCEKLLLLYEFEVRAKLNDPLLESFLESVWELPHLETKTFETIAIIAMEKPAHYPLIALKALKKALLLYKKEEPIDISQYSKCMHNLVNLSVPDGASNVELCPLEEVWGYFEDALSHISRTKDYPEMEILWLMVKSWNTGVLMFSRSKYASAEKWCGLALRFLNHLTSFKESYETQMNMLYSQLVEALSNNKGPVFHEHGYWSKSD

[8] = target: human SHOC1-nVenus (human) (UniProt Q5VXU9); assay: as above

- binding [1]: binds
B1: mouse HA-tagged SPO16 (protein, UniProt Q3KQP7 1-186)
chain: MAMDERRGKERVQWTTTIIISSSLKSYEIATALENRSHKVRYSDTLESGSIVFSLSGVAFLLMDAKECMTSAEEIFVTKIEKFINIHQNSFLVLFAPLHGPEEWSLMFRIHQRFLGSNLRILPVHNTVNALDLMCTIAKTTSKPHIDSICYRMITTKAYIIEQSPVWRTLQKIKLSSDSVSADSGE

- binding [2]: no binding
- binding [3]: no binding
- binding [4]: binds
- binding [5]: no binding
B2: human MYC-tagged TEX11 (protein, UniProt Q8IYF3 1-940)
chain: MISAHCNLRLLCSSDSSASASQVAGTTEVVENLVTNDNSPNIPEAIDRLFSDIANINRESMAEITDIQIEEMAVNLWNWALTIGGGWLVNEEQKIRLHYVACKLLSMCEASFASEQSIQRLIMMNMRIGKEWLDAGNFLIADECFQAAVASLEQLYVKLIQRSSPEADLTMEKITVESDHFRVLSYQAESAVAQGDFQRASMCVLQCKDMLMRLPQMTSSLHHLCYNFGVETQKNNKYEESSFWLSQSYDIGKMDKKSTGPEMLAKVLRLLATNYLDWDDTKYYDKALNAVNLANKEHLSSPGLFLKMKILLKGETSNEELLEAVMEILHLDMPLDFCLNIAKLLMDHERESVGFHFLTIIHERFKSSENIGKVLILHTDMLLQRKEELLAKEKIEEIFLAHQTGRQLTAESMNWLHNILWRQAASSFEVQNYTDALQWYYYSLRFYSTDEMDLDFTKLQRNMACCYLNLQQLDKAKEAVAEAERHDPRNVFTQFYIFKIAVIEGNSERALQAIITLENILTDEESEDNDLVAERGSPTMLLSLAAQFALENGQQIVAEKALEYLAQHSEDQEQVLTAVKCLLRFLLPKIAEMPESEDKKKEMDRLLTCLNRAFVKLSQPFGEEALSLESRANEAQWFRKTAWNLAVQCDKDPVMMREFFILSYKMSQFCPSDQVILIARKTCLLMAVAVDLEQGRKASTAFEQTMFLSRALEEIQTCNDIHNFLKQTGTFSNDSCEKLLLLYEFEVRAKLNDPLLESFLESVWELPHLETKTFETIAIIAMEKPAHYPLIALKALKKALLLYKKEEPIDISQYSKCMHNLVNLSVPDGASNVELCPLEEVWGYFEDALSHISRTKDYPEMEILWLMVKSWNTGVLMFSRSKYASAEKWCGLALRFLNHLTSFKESYETQMNMLYSQLVEALSNNKGPVFHEHGYWSKSD

- binding [4]: no binding
- binding [6]: no binding
B3: human MYC-tagged C1orf146 (protein, UniProt Q5VVC0 1-180)
chain: MAESGKEKIKWTTTIIISSSLKSYEVATALENRSHKVRYSDSVENGSIIFSLSGVAFLLMDTKECLLSTEEIFLAKIEKFINIHQNSFLVLSAALHGPEEWKLMFRIQQRFLGCNLRILPVHNTVNAINLMCTIAKTTSKPYIDSICYRMITAKAYIIEQSPVWKTLQKIKLNSDSVNPN

- binding [7]: no binding
- binding [8]: no binding
B4: human C1orf146-cVenus (protein, UniProt Q5VVC0 1-180)
chain: MAESGKEKIKWTTTIIISSSLKSYEVATALENRSHKVRYSDSVENGSIIFSLSGVAFLLMDTKECLLSTEEIFLAKIEKFINIHQNSFLVLSAALHGPEEWKLMFRIQQRFLGCNLRILPVHNTVNAINLMCTIAKTTSKPYIDSICYRMITAKAYIIEQSPVWKTLQKIKLNSDSVNPN
